Assay results published in paper PMC1868949.
These are yes or no findings as the source states them, for the method shown. Binding seen in cells or lysates may run through a third protein. Some entries that bind do so weakly or less than the wild type.

Amino acid sequences for entries named in this document (tags omitted). A change or cut given only in a name is not applied to a line headed by its entry. Residues count along the entry.
UniProt Q8BMJ8: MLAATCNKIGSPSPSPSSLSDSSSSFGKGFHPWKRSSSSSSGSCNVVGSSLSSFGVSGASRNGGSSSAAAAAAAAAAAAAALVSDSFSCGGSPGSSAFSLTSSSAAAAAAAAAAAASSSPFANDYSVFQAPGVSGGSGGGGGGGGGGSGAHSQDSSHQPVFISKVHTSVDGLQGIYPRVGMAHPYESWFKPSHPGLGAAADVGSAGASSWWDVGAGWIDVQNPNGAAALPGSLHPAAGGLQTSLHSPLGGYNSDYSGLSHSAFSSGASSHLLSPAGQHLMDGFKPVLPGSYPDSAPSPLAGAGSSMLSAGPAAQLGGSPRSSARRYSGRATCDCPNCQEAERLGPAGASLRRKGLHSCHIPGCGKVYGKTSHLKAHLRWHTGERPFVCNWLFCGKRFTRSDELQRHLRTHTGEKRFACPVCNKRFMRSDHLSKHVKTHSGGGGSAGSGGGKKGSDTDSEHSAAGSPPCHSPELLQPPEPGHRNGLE
GST-Sp8 lacking zinc fingers (GST-Sp8ΔZn): residues 1-355 of Q8BMJ8

Assays:
[1] = target: GST-Sp8 (GST-Sp8FL) (mouse) (UniProt Q8BMJ8); experiment: pull-down; GST or GST-Sp8 proteins held on glutathione-sepharose beads; incubated with [35S]-methionine-labelled in vitro translated Emx2 proteins in 0.4 ml binding buffer (0.1 M NaCl, 0.01% NP-40), 2 hours at 4°C; five washes; 15% SDS-PAGE and autoradiography; only the target purified
[2] = target: GST-Sp8 lacking zinc fingers (GST-Sp8ΔZn) (mouse) (UniProt Q8BMJ8); experiment: as above

| Molecule | binding [1] | binding [2] |
| --- | --- | --- |
| Full-length Emx2 protein (Emx2FL) (from UniProt Q04744 1-253) | binds | binds |
| Emx2 lacking the homeobox (Emx2ΔHox) (domain or fragment, UniProt Q04744 1-144, [35S]-methionine labelled) MFQPAPKRCFTIESLVAKDSPLPASRSEDPIRPAALSYANSSPINPFLNGFHSAAAAAAAGRGVYSNPDLVFAEAVSHPPNPAVPVHPVPPPHALAAHPLPSSHSPHPLFASQQRDPSTFYPWLIHRYRYLGHRFQGNDTSPES | no binding | no binding |
